About 17,000 (5.5%) of roughly 310,000 compounds were called active. Inconclusive means that the source gave no clear call. Such entries were picked first, then a sample of the others. Calls come from the whole dose curve; as a rule, active = well fitted inhibition curve with a large enough effect; inconclusive = small, poorly fitted or top-dose-only effect, or effect the other way; inactive = no such curve, though single readings can be large or run the other way. Potencies beside an inconclusive call are fits to weak or partial responses and may not hold up.
target: Nuclear receptor ROR-gamma (Mus musculus) (UniProt P51450); test: qHTS for inhibitors of ROR gamma transcriptional activity; settings: Drosophila S2 Gal4-RORgamma UAS-luciferase reporter, 20 h; activity change, negative = inhibition: at 53.6 µM (top of the series); note: nearly all actives have a fitted effect of over 60% in size
In short: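 Stable Schneider cell line, Gal4 DNA-binding domain fused to ROR gamma, UAS-luciferase. Cmpd 1 hr RT → CuSO4 700 uM final → 20 hr RT → luciferase reagent 10 min → luminescence.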
% is set by controls: 0 for no effect and ±100 for the full control effect; potency is the fitted concentration of half-maximal effect.

By UniProt entry, the sequences of proteins in these tests, tags left out. Where a name states a change or a piece, a line headed by the entry shows the natural chain unless it says otherwise.
UniProt P51450: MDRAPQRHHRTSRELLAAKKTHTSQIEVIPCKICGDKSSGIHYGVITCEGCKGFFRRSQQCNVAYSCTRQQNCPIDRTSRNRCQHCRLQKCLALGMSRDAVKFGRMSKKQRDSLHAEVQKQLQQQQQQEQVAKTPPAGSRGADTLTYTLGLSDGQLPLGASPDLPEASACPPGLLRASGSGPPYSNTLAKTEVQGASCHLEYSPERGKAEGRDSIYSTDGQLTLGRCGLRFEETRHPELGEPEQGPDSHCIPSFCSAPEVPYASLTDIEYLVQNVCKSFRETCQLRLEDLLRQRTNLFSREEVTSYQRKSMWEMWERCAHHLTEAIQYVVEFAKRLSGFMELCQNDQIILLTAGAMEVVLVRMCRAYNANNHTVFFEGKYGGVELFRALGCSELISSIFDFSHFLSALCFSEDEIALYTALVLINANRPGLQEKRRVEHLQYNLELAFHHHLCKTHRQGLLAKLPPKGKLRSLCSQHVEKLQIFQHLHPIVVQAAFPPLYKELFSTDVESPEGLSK

| Compound | activity change, negative = inhibition | Potency |
| --- | --- | --- |
| O=S(=O)(NC1CCc2ccccc21)c1ccc(S(=O)(=O)N2CCCC2)cc1 (stereo not drawn) | inactive: 0.302% | – |
| COC(=O)c1c(CSc2cccc(C)c2)noc1C(=O)NCc1ccco1 | – | inconclusive: 17.8 µM [activator, single point] |
| Cc1cc(C(=O)N2CCN(c3ccc([N+](=O)[O-])cc3)CC2)c(C)o1 | inactive: 16.6% | – |
| CSc1cc(-c2ccccc2)n(Cc2c(Cl)cccc2Cl)c(=O)c1C#N | inactive: 1.19% | – |
| O=C(C[n+]1ccccc1)N/N=C/c1cc(Br)ccc1O | – | inconclusive: 39.8 µM [inhibitor, single point] |
| CCOc1ccccc1CN(CCc1ccc2c(c1)OCO2)Cc1ccccn1 | – | inconclusive: 22.4 µM [inhibitor, single point] |
| CCCS(=O)(=O)c1nc(S(=O)(=O)c2ccc(C)cc2)c(N2CCN(CCO)CC2)s1 | inactive: 0.863% | – |
| CC1(C)Cc2c(c(N3CCOCC3)nc3snc(N)c23)CO1 | – | inconclusive: 35.5 µM [inhibitor, single point] |
| CC(C)(C)c1ccc(-c2nc(C#N)c(N3CCC(C(N)=O)CC3)o2)cc1 | – | inconclusive: 20 µM [activator, single point] |
| COc1ccc(NC(=O)c2ccc3c(c2)C(=O)N(Cc2cccnc2)C3=O)c(OC)c1 | – | inconclusive: 12.6 µM [activator, partial curve, poor fit] |
| Cc1cc2cc(CCNC(=O)c3ccc(C)c([N+](=O)[O-])c3)c(=O)[nH]c2cc1C | – | inconclusive: 10 µM [activator, single point] |
| CCn1c(C)cc(/C=C2/SC(=O)N(C(C)C(=O)OC)C2=O)c1C (stereo not drawn) | – | inconclusive: 7.08 µM [activator, full curve, poor fit] |
| CCCCOC(=O)C1C2C=CC3(CN(CCc4ccccc4)C(=O)C13)O2 (stereo not drawn) | – | inconclusive: 0.112 µM [activator, partial curve, poor fit] |
| O=C(CN1CCN(c2ccc(C(F)(F)F)cn2)CC1)NCc1ccc2c(c1)OCO2 | – | inconclusive: 20 µM [activator, single point] |
| CC(C)c1ccc(NC(=O)c2ccccc2NC(=O)C2CCCCC2C(=O)O)cc1 (stereo not drawn) | – | inconclusive: 14.1 µM [activator, partial curve] |
| COc1ccc(NC(=S)N(CCN(C)C)C(C)c2ccco2)cc1Cl (stereo not drawn) | – | inconclusive: 22.4 µM [inhibitor, single point] |
| CC1CCN(c2ccc(NC(=S)NC(=O)c3ccc(-c4cccc([N+](=O)[O-])c4)o3)cc2)CC1 | – | active: 1.58 µM |
| O=C(Nc1ccc2c(c1)OCCO2)C(=O)NC1CC1 | – | inconclusive: 15.8 µM [inhibitor, single point] |

Single records, as listed above.
Cc1cc2cc(CCNC(=O)c3ccc(C)c([N+](=O)[O-])c3)c(=O)[nH]c2cc1C as listed: Potency: inconclusive: 10 µM [activator, single point]
COc1ccc(NC(=O)c2ccc3c(c2)C(=O)N(Cc2cccnc2)C3=O)c(OC)c1 as listed: Potency: inconclusive: 12.6 µM [activator, partial curve, poor fit]
